Measured values published in publication PMC12694794.
No constants are given. Whether binding was seen depends on the method and setting.

Chains of the proteins cited; added tags and fusions are not shown.
UniProt Q18B12: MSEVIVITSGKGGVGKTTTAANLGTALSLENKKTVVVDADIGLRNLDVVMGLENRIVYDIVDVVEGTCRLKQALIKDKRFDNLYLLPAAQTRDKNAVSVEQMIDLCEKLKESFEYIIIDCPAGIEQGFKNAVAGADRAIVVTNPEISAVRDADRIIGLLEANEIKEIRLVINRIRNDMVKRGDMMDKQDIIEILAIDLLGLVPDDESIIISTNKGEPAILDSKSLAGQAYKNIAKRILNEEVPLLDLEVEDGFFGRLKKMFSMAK

Target: MinD fused to the T18 or T25 fragment of CyaA (bacterial two-hybrid) (C. difficile R20291) (UniProt Q18B12)
Assay: two-hybrid; bacterial two-hybrid: N- and C-terminal fusions to the CyaA T18 and T25 fragments, pairs co-transformed into E. coli BTH101, spotted on LB-agar with X-gal and 0.5 mM IPTG, 24-36 hours at 30°C

MinD fused to the T18 or T25 fragment of CyaA (bacterial two-hybrid) (from UniProt Q18B12 1-265)
binding: no binding
